Among the data in paper doi:10.1101/2024.01.30.577955 are binding values, retold here.

Protein sequences, listed by entry. Tags and fused reporters are not part of them. Lines headed by an entry give the natural chain unless they say otherwise; changes in a name come on top.
UniProt Q96N11, whole entry: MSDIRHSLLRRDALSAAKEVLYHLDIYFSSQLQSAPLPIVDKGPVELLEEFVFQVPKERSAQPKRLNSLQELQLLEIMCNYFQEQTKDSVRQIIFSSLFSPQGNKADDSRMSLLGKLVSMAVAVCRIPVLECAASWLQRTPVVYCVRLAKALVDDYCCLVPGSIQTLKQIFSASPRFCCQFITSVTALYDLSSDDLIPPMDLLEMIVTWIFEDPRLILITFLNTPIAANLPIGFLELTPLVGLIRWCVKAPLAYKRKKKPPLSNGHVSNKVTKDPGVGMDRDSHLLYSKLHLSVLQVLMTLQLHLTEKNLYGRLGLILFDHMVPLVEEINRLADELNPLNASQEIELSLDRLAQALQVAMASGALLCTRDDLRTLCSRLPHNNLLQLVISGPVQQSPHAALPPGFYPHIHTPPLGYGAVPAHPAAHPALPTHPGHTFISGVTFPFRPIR

Results are given in words; binding and its absence hold for the method and conditions named. In cells and extracts the contact can be indirect. Here binding means that the protein was enriched with, or labelled near, the bait; the list need not be complete. For part of these data: No binding means not detected with the bait.

Holding throughout (assay): affinity purification with mass spectrometry
One assay addresses 3xHA-INTS15 (WT) (UniProt Q96N11).
The next assay has as its target 3xHA-INTS15 (L69A/L72A) (UniProt Q96N11).
In assay [1] the target is 3xHA-INTS15 (M120A/V124A) (UniProt Q96N11).

With “INTS5 (endogenous) (from UniProt Q6P9B9 1-1019)”, the figures for the binding result (with 3xHA-INTS15 (WT); in the assay with 3xHA-INTS15 (L69A/L72A); in assay [1]) were “binds”, “no binding” and “no binding”, respectively.

As to “INTS6 (endogenous) (from UniProt Q9UL03 1-887)”, in the assay with 3xHA-INTS15 (WT), the binding entry was “binds”.

On to “INTS7 (endogenous) (from UniProt Q9NVH2 1-962)”, for which the binding result with 3xHA-INTS15 (WT) is listed as “binds”.

On to “INTS2 (endogenous) (from UniProt Q9H0H0 1-1196)”, for which the binding result with 3xHA-INTS15 (WT) was “binds”.

As for “INTS10 (endogenous) (from UniProt Q9NVR2 1-710)”, the binding entry (with 3xHA-INTS15 (WT); with 3xHA-INTS15 (L69A/L72A); in assay [1]) was “binds” throughout.

For the substance “INTS8 (endogenous) (from UniProt Q75QN2 1-995)”, the binding entry was “binds” with 3xHA-INTS15 (WT), “no binding” with 3xHA-INTS15 (L69A/L72A) and “no binding” in assay [1].
